Experimental data as given in patent publication US20250213687A1.
Results are given in words; binding and its absence hold for the method and conditions named. Some results given as binding are weak or reduced against the parent protein; the word gives no strength.

By UniProt entry, the sequences of proteins in these tests, tags left out. Residues count along the entry.
UniProt P10144, residues 21-247: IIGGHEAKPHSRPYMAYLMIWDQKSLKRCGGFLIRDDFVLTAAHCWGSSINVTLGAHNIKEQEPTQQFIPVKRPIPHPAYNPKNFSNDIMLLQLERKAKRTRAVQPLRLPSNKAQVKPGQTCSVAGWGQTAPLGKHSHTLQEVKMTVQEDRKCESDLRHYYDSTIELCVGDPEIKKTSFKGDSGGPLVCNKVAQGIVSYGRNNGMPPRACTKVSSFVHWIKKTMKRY

Target: Granzyme B (GzmB) (UniProt P10144)
Experiment: SDS-PAGE / western blot of T cell lysates probed with anti-SB9 antibody 7D8

- binding: binds
B1: SERPINB9 (SB9) (protein)
chain: METLSNASGTFAIRLLKILCQDNPSHNVFCSPVSISSALAMVLLGAKGNTATQMAQALSLNTEEDIHRAFQSLLTEVNKAGTQYLLRTANRLFGEKTCQFLSTFKESCLQFYHAELKELSFIRAAEESRKHINTWVSKKTEGKIEELLPGSSIDAETRLVLVNAIYFKGKWNEPFDETYTREMPFKINQEEQRPVQMMYQEATFKLAHVGEVRAQLLELPYARKELSLLVLLPDDGVELSTVEKSLTFEKLTAWTKPDCMKSTEVEVLLPKFKLQEDYDMESVLRHLGIVDAFQQGKADLSAMSAERDLCLSKFVHKSFVEVNEEGTEAAAASSCFVVAECCMESGPRFCADHPFLFFIRHNRANSILFCGRFSSP
